The other results are listed elsewhere or left out.
Legend:
Assay in all cases: log2 fold change, soluble protein after heating vs DMSO (PISA); higher = thermal stabilisation; K562 lysate, 10 uM; active = over 0.2 and 3.5 SD of the protein, either way, in both replicates (recomputed)
erlotinib = compound: C#Cc1cccc(Nc2ncnc3cc(OCCOC)c(OCCOC)cc23)c1 [erlotinib]
Procedure, shortened: (§1)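 Following dounce homogenisation of K562 pellets in PBS pH 7.4 with 1 mM MgCl2, crude extract at 1 mg/mL protein was incubated for 30 min with 10 μM compound. Aliquots were then heated for 3 min over 48°C-58°C and pooled, NP-40 was added to 0.5% at 4°C, and soluble protein was recovered as the supernatant at 21,000xg for 90 min. Channel-sum-equalised TMTpro 16plex LC-MS/MS quantified this protein. Each value, from duplicates, is a log-two fold change in thermal stability relative to solvent controls.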

Sequences of proteins named here, by UniProt entry; tags and fusion partners are left off. A change or cut given only in a name is not applied to a line headed by its entry.
UniProt Q9NP80: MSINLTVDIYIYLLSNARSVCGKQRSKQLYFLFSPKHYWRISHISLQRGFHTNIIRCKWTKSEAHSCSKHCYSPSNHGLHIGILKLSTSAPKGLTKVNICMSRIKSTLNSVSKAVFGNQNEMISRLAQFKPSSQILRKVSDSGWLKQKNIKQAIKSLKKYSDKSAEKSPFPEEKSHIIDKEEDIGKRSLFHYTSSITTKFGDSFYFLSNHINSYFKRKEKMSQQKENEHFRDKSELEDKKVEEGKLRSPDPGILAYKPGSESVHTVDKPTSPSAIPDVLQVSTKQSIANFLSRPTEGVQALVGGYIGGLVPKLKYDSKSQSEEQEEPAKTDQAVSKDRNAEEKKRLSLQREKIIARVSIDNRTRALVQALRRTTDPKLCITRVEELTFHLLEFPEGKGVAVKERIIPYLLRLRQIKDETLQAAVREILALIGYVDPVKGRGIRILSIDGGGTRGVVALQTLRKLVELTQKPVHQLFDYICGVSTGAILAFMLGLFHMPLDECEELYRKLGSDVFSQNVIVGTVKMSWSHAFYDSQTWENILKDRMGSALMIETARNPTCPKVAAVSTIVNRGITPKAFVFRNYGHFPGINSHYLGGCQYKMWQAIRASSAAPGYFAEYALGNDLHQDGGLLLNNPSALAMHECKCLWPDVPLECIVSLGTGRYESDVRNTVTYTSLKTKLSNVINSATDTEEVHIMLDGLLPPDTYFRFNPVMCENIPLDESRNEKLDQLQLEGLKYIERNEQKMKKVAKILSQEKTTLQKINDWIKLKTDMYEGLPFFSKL
UniProt Q9NUX5: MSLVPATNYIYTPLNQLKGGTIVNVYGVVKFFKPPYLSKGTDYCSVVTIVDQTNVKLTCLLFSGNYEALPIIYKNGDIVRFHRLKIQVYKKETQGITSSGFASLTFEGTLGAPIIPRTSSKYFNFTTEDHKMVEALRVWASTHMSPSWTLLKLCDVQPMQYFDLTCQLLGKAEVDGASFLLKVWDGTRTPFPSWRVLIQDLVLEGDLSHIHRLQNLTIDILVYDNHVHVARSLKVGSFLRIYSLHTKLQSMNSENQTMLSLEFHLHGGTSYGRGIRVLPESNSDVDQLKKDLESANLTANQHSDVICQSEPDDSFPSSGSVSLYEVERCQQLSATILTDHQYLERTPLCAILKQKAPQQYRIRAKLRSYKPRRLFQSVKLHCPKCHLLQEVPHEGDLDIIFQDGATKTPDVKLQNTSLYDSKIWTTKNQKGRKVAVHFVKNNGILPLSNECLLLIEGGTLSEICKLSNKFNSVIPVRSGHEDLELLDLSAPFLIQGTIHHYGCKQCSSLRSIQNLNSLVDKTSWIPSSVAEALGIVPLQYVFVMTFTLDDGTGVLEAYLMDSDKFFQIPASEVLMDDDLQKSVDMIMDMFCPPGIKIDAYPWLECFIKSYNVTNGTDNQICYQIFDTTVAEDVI
UniProt P53350, whole entry, looked up: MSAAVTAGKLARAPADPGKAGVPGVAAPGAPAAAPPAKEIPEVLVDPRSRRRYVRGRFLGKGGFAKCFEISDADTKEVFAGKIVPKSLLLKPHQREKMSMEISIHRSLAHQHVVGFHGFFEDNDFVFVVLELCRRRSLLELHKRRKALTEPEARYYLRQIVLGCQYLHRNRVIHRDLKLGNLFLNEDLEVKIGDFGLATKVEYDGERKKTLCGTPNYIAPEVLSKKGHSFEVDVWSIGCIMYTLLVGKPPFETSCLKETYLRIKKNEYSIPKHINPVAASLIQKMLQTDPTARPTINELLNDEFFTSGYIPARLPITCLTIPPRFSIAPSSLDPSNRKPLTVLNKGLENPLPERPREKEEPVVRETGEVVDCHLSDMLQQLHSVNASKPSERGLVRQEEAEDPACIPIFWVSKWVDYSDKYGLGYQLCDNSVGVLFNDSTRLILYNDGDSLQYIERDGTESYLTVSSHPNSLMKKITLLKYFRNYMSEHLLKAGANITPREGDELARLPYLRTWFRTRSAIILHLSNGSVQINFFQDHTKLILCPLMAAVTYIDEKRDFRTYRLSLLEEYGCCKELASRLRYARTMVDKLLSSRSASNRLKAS
UniProt O15160, whole entry, looked up: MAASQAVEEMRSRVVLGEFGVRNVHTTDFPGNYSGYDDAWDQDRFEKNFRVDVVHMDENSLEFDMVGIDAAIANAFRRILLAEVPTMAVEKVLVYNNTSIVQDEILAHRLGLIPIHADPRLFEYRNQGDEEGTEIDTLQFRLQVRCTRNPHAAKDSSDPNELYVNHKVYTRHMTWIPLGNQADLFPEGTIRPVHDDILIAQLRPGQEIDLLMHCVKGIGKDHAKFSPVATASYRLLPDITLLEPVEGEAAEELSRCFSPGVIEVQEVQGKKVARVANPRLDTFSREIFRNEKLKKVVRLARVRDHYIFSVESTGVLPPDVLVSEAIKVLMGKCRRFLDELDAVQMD
UniProt O14802: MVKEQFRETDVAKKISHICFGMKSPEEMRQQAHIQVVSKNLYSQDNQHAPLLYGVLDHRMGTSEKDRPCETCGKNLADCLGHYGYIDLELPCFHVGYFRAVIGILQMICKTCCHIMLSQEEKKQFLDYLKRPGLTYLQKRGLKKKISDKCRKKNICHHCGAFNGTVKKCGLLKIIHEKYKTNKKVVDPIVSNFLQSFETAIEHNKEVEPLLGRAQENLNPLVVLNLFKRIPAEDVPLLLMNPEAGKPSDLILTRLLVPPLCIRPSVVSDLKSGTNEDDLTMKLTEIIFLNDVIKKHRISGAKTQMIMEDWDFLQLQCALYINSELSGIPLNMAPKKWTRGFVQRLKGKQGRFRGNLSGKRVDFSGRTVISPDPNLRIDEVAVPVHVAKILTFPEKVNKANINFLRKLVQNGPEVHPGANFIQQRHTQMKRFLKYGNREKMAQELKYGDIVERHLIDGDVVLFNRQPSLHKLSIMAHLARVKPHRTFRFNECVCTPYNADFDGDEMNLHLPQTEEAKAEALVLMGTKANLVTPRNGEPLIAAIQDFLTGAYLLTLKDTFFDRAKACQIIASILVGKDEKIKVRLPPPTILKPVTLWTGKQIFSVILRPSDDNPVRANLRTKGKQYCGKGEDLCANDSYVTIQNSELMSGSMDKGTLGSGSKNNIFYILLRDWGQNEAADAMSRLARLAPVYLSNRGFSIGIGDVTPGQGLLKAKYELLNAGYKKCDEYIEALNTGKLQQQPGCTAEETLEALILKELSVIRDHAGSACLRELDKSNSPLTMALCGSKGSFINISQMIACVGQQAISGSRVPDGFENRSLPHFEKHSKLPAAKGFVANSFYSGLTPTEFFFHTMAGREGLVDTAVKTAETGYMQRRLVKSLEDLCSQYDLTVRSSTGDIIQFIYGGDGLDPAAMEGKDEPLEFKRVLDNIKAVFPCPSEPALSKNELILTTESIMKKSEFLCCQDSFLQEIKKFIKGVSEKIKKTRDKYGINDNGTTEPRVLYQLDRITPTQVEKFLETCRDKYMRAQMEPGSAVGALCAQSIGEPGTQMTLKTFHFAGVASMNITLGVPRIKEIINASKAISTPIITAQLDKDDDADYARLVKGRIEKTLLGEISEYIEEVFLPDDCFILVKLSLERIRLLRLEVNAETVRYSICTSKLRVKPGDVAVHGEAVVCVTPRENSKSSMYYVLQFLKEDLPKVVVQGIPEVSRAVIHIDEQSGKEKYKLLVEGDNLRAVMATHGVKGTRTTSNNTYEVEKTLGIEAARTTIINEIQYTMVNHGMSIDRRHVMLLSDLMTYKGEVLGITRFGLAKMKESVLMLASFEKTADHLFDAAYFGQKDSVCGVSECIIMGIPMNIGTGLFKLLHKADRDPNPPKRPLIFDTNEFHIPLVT
UniProt Q6UW63: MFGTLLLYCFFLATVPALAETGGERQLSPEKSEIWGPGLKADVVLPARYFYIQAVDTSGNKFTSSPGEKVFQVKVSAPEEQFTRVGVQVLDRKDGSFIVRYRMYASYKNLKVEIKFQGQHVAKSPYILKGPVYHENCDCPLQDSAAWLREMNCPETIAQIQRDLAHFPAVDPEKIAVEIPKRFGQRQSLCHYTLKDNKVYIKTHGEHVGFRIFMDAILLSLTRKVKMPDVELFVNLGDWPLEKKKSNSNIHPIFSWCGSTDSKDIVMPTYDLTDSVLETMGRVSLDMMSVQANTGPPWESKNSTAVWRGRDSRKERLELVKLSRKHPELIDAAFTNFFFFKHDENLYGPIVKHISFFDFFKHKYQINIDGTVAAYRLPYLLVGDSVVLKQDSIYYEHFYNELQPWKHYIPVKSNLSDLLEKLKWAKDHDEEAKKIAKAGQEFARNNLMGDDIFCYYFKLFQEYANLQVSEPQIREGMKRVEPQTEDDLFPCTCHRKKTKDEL
UniProt Q96AD5: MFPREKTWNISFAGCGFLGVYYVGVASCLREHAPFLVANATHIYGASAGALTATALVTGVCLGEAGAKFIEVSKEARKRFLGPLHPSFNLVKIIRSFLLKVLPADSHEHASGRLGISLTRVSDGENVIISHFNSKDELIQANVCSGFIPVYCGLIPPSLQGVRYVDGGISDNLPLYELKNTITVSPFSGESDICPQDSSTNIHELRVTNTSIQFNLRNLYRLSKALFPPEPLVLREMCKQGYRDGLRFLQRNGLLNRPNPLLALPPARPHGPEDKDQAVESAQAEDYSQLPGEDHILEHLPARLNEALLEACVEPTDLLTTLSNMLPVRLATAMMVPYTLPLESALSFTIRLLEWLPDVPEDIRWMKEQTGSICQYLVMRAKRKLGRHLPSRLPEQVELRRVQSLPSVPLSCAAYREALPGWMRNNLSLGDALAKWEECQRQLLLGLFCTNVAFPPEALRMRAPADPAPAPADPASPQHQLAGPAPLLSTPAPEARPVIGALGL
UniProt O15162: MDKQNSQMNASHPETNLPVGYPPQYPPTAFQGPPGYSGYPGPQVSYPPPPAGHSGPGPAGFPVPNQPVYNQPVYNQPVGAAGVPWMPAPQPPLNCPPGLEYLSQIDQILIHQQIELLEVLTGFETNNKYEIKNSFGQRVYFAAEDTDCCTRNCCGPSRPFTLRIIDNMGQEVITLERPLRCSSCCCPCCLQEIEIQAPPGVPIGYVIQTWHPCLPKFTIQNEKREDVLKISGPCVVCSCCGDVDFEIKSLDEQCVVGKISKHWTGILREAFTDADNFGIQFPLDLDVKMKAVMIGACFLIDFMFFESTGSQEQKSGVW
UniProt P54098: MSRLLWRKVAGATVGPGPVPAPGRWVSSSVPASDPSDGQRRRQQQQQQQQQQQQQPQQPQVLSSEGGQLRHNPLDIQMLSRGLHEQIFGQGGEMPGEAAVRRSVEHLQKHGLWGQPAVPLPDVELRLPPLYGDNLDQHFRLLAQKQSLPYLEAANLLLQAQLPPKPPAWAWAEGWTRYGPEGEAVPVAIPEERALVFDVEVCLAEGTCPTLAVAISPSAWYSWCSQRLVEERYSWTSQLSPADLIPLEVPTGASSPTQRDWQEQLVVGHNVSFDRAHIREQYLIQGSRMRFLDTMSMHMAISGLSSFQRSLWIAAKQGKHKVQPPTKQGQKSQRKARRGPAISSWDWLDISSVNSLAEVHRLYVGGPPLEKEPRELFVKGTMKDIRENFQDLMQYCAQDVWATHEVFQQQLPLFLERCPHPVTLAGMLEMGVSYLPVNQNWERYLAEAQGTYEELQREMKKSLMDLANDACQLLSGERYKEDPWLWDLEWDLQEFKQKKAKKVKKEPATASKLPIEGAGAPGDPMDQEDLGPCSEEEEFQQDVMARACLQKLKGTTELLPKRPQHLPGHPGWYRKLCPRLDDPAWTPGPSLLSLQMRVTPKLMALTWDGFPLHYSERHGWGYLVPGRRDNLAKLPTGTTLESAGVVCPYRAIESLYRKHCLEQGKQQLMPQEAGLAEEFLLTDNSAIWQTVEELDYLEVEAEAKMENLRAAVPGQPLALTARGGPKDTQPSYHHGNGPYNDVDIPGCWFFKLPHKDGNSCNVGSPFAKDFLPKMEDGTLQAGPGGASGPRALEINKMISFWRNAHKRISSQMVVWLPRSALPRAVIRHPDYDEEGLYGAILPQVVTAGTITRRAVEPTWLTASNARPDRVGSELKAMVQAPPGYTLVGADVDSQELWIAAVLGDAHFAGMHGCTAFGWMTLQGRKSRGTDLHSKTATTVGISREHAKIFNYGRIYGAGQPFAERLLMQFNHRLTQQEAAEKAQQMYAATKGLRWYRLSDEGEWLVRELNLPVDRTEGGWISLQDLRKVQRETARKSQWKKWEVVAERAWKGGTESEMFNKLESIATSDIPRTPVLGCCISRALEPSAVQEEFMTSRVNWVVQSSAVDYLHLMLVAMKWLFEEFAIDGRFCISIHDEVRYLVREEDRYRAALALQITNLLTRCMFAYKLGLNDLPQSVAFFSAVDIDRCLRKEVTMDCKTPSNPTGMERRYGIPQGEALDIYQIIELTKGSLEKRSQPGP
UniProt Q96CD2: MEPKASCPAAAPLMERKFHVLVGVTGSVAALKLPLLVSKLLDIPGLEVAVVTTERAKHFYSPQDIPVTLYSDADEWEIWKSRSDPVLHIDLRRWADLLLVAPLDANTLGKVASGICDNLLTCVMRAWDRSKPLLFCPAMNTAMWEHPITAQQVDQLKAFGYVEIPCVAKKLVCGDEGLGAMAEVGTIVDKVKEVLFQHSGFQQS

[1] = compound: C/C(=N\NC(=O)C1=CC(=CC=C1)S(=O)(=O)N2CCOCC2)/C3=C(C=CC(=C3)Cl)O
Procedure, shortened: as §1

[2] = compound: C1=CC(=CC=C1C2=NC3=C(N2)C=C(C=C3)C(=O)N)OC4=CC=C(C=C4)Cl
Procedure, shortened: as §1

[3] = compound: C1=CC2=C(C=CC(=C2)/C=C\3/C(=O)NC(=NCC4=CC=CS4)S3)N=C1
Procedure, shortened: as §1

[4] = compound: C1=CC2=NC=CN=C2C=C1/C=C/3\C(=O)NC(=O)S3
Procedure, shortened: as §1

[5] = compound: C1=CC=C(C=C1)C2=NC(=C(N2)C3=CC=NC=C3)C4=CC(=C(C=C4)Cl)O
Procedure, shortened: as §1

[6] = compound: C1=CC=C2C(=C1)C3=NNC4=CC=CC(=C43)C2=O
Procedure, shortened: as §1

[7] = compound: C1CCN(C1)C(=O)NC2=CC=CC(=C2)NC3=NC=C(C(=N3)NCCC4=CN=CN4)Br
Procedure, shortened: as §1

[8] = compound: C1CN(CCC1(CC2=CC=C(C=C2)Cl)N)C3=NC=NC4=C3C=CN4
Procedure, shortened: as §1

IRAK-1-4 Inhibitor I = compound: C1COCCN1CCN2C3=CC=CC=C3N=C2NC(=O)C4=CC(=CC=C4)[N+](=O)[O-] [IRAK-1-4 Inhibitor I]
Procedure, shortened: as §1

ibrutinib = compound: C=CC(=O)N1CCC[C@@H](n2nc(-c3ccc(Oc4ccccc4)cc3)c3c(N)ncnc32)C1 [ibrutinib]
Procedure, shortened: as §1

[9] = compound: CC(=O)c1cnc2ccc(-c3cc(Cl)c(O)c(Cl)c3)nc2c1N[C@H]1CC[C@H](CN(C)C)CC1
Procedure, shortened: as §1

ralimetinib = compound: CC(C)(C)Cn1c(N)nc2ccc(-c3[nH]c(C(C)(C)C)nc3-c3ccc(F)cc3)nc21 [ralimetinib]
Procedure, shortened: as §1

[10] = compound: CC(C)(O)CC(=O)NCCn1ccc2ncnc(Nc3ccc(Oc4cccc(C(F)(F)F)c4)c(Cl)c3)c21
Procedure, shortened: as §1

[11] = compound: CC(C)C1=C2N=C(C=C(N2N=C1)NCC3=CC=CC=C3)NCCCCCCN
Procedure, shortened: as §1

[12] = compound: CC1=C(C(CC(=O)N1)C2=CC=C(C=C2)C(F)(F)F)C(=O)NC3=C(C=C4C(=C3)C=NN4)F
Procedure, shortened: as §1

[13] = compound: CC1=C(C2=C(C=C1)C(=O)C3=CC=CC=C3N2CCCN)C
Procedure, shortened: as §1

[14] = compound: CC1=C(C=C(C=C1)NC(=O)C2=CC(=CC=C2)C(C)(C)C#N)NC3=CC4=C(C=C3)N=CN(C4=O)C
Procedure, shortened: as §1

[15] = compound: CC1=C(C=C(C=C1)NC(=O)C2=CC(=CC=C2)N(C)C)NC(=O)C3=CC=C(C=C3)O
Procedure, shortened: as §1

[16] = compound: CC1=CC=C(C=C1)SC2=C3C=C(SC3=CN=C2)C(=O)N
Procedure, shortened: as §1

Measured: log2 fold change

PNPLA8 (UniProt Q9NP80)
inactive: erlotinib 0.03 | [1] 0.156 | [2] -0.212 | [3] -0.015 | [4] 0.022 | [5] -0.03 | [6] 0.038 | [7] 0.085 | [8] -0.077 | IRAK-1-4 Inhibitor I -0.03 | ibrutinib 0.047 | [9] 0.004 | ralimetinib -0.052 | [10] -0.012 | [11] -0.013 | [12] 0.047 | [13] 0.041 | [14] 0.004 | [15] 0.051 | [16] 0.022

POT1 (UniProt Q9NUX5)
inactive: erlotinib -0.127 | [1] -0.021 | [2] -0.121 | [3] 0.194 | [4] 0.044 | [5] 0.092 | [6] -0.052 | [7] 0.01 | [8] 0.063 | IRAK-1-4 Inhibitor I 0.071 | ibrutinib 0.045 | [9] -0.018 | ralimetinib 0.015 | [10] -0.033 | [11] -0.073 | [12] -0.092 | [13] -0.058 | [14] 0.043 | [15] -0.078 | [16] -0.013

POLR3K (UniProt Q9Y2Y1)
inactive: erlotinib 0.005 | [1] 0.01 | [2] -0.024 | [3] 0.075 | [4] 0.042 | [5] 0.095 | [6] -0.058 | [7] 0.013 | [8] 0.018 | IRAK-1-4 Inhibitor I -0.056 | ibrutinib 0.039 | [9] 0.044 | ralimetinib -0.011 | [10] 0 | [11] 0.02 | [12] -0.003 | [13] -0.048 | [14] -0.003 | [15] 0.005 | [16] -0.017

PLK1 (UniProt P53350)
inactive: erlotinib 0.006 | [1] -0.032 | [2] -0.013 | [3] 0.077 | [4] -0.092 | [5] 0 | [6] -0.147 | [7] -0.069 | [8] 0.143 | IRAK-1-4 Inhibitor I -0.141 | ibrutinib -0.004 | [9] 0.069 | ralimetinib 0.009 | [10] 0.015 | [11] 0.068 | [12] 0.022 | [13] -0.019 | [14] 0.032 | [15] 0.036 | [16] -0.014

POLR1C (UniProt O15160)
inactive: erlotinib 0.002 | [1] -0.008 | [2] -0.088 | [3] 0 | [4] 0.024 | [5] -0.024 | [6] 0.072 | [7] -0.015 | [8] 0.023 | IRAK-1-4 Inhibitor I -0.04 | ibrutinib -0.041 | [9] -0.013 | ralimetinib 0.012 | [10] -0.018 | [11] 0.029 | [12] 0.003 | [13] 0.017 | [14] 0.024 | [15] 0.012 | [16] 0.017

POLR3A (UniProt O14802)
inactive: erlotinib -0.007 | [1] -0.046 | [2] -0.012 | [3] 0.013 | [4] -0.001 | [5] 0.005 | [6] 0.007 | [7] -0.02 | [8] -0.027 | IRAK-1-4 Inhibitor I -0.008 | ibrutinib 0.001 | [9] -0.028 | ralimetinib 0.025 | [10] -0.001 | [11] -0.009 | [12] -0.002 | [13] -0.027 | [14] -0.01 | [15] 0.005 | [16] 0.008

POGLUT2 (UniProt Q6UW63)
inactive: erlotinib 0.029 | [1] -0.053 | [2] -0.038 | [3] 0.021 | [4] 0.011 | [5] -0.04 | [6] -0.049 | [7] 0.008 | [8] 0.048 | IRAK-1-4 Inhibitor I 0.033 | ibrutinib 0.008 | [9] 0.007 | ralimetinib 0.095 | [10] -0.006 | [11] -0.041 | [12] -0.008 | [13] -0.023 | [14] 0.007 | [15] -0.015 | [16] 0

PLG (UniProt P00747)
inactive: erlotinib 0.047 | [1] -0.501 | [2] 0.098 | [3] -0.04 | [4] -0.007 | [5] -0.025 | [6] 0.041 | [7] -0.089 | [8] -0.005 | IRAK-1-4 Inhibitor I -0.003 | ibrutinib -0.032 | [9] 0 | ralimetinib -0.005 | [10] -0.163 | [11] 0.048 | [12] 0.032 | [13] 0.026 | [14] -0.127 | [15] 0.028 | [16] -0.05

PNPLA2 (UniProt Q96AD5)
inactive: erlotinib -0.019 | [1] -0.02 | [2] -0.016 | [3] 0.098 | [4] -0.002 | [5] 0.014 | [6] 0.012 | [7] -0.003 | [8] 0.077 | IRAK-1-4 Inhibitor I -0.014 | ibrutinib 0.087 | [9] -0.007 | ralimetinib 0.007 | [10] -0.1 | [11] 0.041 | [12] -0.046 | [13] 0.034 | [14] 0.106 | [15] 0.023 | [16] -0.012

POLR3D (UniProt P05423)
inactive: erlotinib 0.136 | [1] -0.023 | [2] -0.069 | [3] 0.016 | [4] 0 | [5] 0.007 | [6] -0.011 | [7] -0.016 | [8] -0.037 | IRAK-1-4 Inhibitor I 0.011 | ibrutinib -0.015 | [9] -0.021 | ralimetinib -0.017 | [10] -0.054 | [11] 0.82 | [12] 0.015 | [13] -0.047 | [14] -0.028 | [15] 0.019 | [16] 0.014

PLSCR1 (UniProt O15162)
inactive: erlotinib 0.013 | [1] 0.049 | [2] 0.004 | [3] -0.018 | [4] 0.024 | [5] 0.03 | [6] -0.024 | [7] 0.018 | [8] 0.017 | IRAK-1-4 Inhibitor I 0.006 | ibrutinib 0.022 | [9] 0.005 | ralimetinib -0.022 | [10] 0.003 | [11] -0.008 | [12] -0.054 | [13] -0.001 | [14] 0.038 | [15] -0.07 | [16] -0.049

POLA1 (UniProt P09884)
inactive: erlotinib 0.009 | [1] -0.039 | [2] -0.02 | [3] -0.015 | [4] -0.036 | [5] 0.084 | [6] -0.005 | [7] -0.034 | [8] 0.015 | IRAK-1-4 Inhibitor I -0.003 | ibrutinib 0 | [9] -0.013 | ralimetinib -0.032 | [10] 0.003 | [11] 0.001 | [12] 0.007 | [13] -0.001 | [14] 0.02 | [15] 0.022 | [16] -0.016

POLG2 (UniProt Q9UHN1)
inactive: erlotinib -0.015 | [1] -0.154 | [2] 0.002 | [3] 0.01 | [4] 0 | [5] -0.013 | [6] -0.018 | [7] -0.022 | [8] 0.018 | IRAK-1-4 Inhibitor I 0.032 | ibrutinib 0.033 | [9] -0.009 | ralimetinib 0.048 | [10] 0.007 | [11] -0.01 | [12] 0.017 | [13] -0.052 | [14] 0.01 | [15] -0.017 | [16] -0.058

PLS3 (UniProt P13797)
inactive: erlotinib 0.017 | [1] 0.019 | [2] 0.02 | [3] -0.014 | [4] 0.018 | [5] 0.012 | [6] 0.031 | [7] 0.013 | [8] 0.013 | IRAK-1-4 Inhibitor I 0.026 | ibrutinib 0.021 | [9] 0.004 | ralimetinib 0.006 | [10] -0.04 | [11] -0.01 | [12] -0.017 | [13] -0.021 | [14] 0.013 | [15] -0.012 | [16] 0.003

POLG (UniProt P54098)
inactive: erlotinib 0.064 | [1] 0.002 | [2] -0.039 | [3] -0.128 | [4] -0.094 | [5] -0.005 | [6] 0.054 | [7] -0.025 | [8] -0.057 | IRAK-1-4 Inhibitor I -0.039 | ibrutinib 0.08 | [9] 0.153 | ralimetinib 0.032 | [10] -0.042 | [11] 0.012 | [12] -0.005 | [13] -0.043 | [14] 0.141 | [15] -0.032 | [16] -0.061

PPCDC (UniProt Q96CD2)
inactive: erlotinib -0.019 | [1] 0.075 | [2] 0.033 | [3] -0.115 | [4] 0.004 | [5] 0.002 | [6] -0.115 | [7] -0.05 | [8] 0.084 | IRAK-1-4 Inhibitor I 0.023 | ibrutinib 0.016 | [9] 0.023 | ralimetinib 0.067 | [10] -0.157 | [11] 0.064 | [12] -0.023 | [13] -0.033 | [14] 0.019 | [15] -0.041 | [16] 0.003

— the supplement of paper PMC10849652
